One protein from patent US5849493, “Screening assay for compounds stimulating somatostatin transcription factor -1 binding to an STF-1 binding site” (Research Development Foundation, dated 1997) can be followed below.

The series concerns the molecule itself. Kind of series: gel mobility shift, TSEII probe, increasing recombinant STF-1 (test for a homodimeric form).

B1: STF-1 (somatostatin transcription factor-1), full length recombinant protein (other)
chain: MNSEEQYYAATQLYKDPCAFQRGPVPEFSANPPACLYMGRQPPPPPPPQFAGSLGTLEQGSPPDISPYEVPPLADDPAGAHLHHHLPAQLGLAHPPPGPFPNGTETGGLEEPSRVHLPFPWMKSTKAHAWKSQWAGGAYAAEPEENKRTRTAYTRAQLLELEKEFLFNKYISRPRRVELAVMLNLTERHIKIWFQNRRMKWKKEEDKKRSSGTTSGGGGGEEPEQDCAVTSGEELLALPPPPPPGGAVPSGVPAAAREGRLPSGLSASPQPSSIAPLRPQEPR
As to B1, the binding result is “no binding”.
